# Test system: mouse model of chronic kidney disease (CKD)
# Assay: Adenine-induced mouse model of chronic kidney disease
# Assay type: in vivo, C57Bl/6 mice
# Details: adenine 50 mg/kg PO daily, Day 42 (model induction)
# Protocol: To induce chronic kidney disease (CKD), 6-week-old C57Bl/6 mice were dosed daily via PO administration with 50 mg/kg of adenine or vehicle. After six weeks of adenine administration, a representative group of mice were taken down and tested to confirm anemia. Concomitantly, the remainder of the CKD mice began dosing with either vehicle or the compound of Formula I-42 5 mg/kg PO daily. Mice were dosed with vehicle or the compound of Formula I-42 while still receiving daily adenine for 10 days. The study was terminated at 52 days and hematology (Heska, Element HT-5), serum hepcidin (Intrinsic Biosciences, Hepcidin Murine Compete), and serum iron (Bioassay Systems, QuantiChrom Kit) levels were assessed.
smiles,measurement,value
"Nc1ncnc2nc[nH]c12 [adenine, reference compound]","serum hepcidin values, higher than vehicle treated mice",248.9%
same,"serum iron values, lower than vehicle treated mice",37.6%
